Source: US20070110804A1, “Drug polymer complexes” (ROYER BIOMEDICAL, INC., priority 2003, published 2007)

From the text: A “yes” entry means that a complex of low solubility forms on mixing the sodium salt of the polymers and the salt of the active ingredient.

complex of low solubility forms (yes/no), polymer CMC-L: no
complex of low solubility forms (yes/no), polymer CMC-M: no
complex of low solubility forms (yes/no), polymer Dextran Sulfate-500: yes
Compound: CCC[C@@H]1C[C@@H](C(=O)N[C@@H]([C@H]2O[C@H](SC)[C@H](O)[C@@H](O)[C@H]2O)[C@H](C)Cl)N(C)C1 [Clindamycin]
